Experimental data published in paper PMC13229503, “Dissecting mechanisms of ligand binding and conformational changes in the glutamine-binding protein” (eLife, 2026).
Substitutions are numbered along the chain they refer to. Results are given in words; binding and its absence hold for the method and conditions named.

What was measured:
Experiment in all cases: SEC; Superdex 75 Increase 10/300 GL; protein refolded from 6 M guanidine hydrochloride by dialysis in PBS pH 7.4, 1 mM DTT; elution volume and peak shape compared before and after refolding; both purified
[1] = target: wild-type glutamine-binding protein GlnBP (E. coli) (UniProt P0AEQ3)
[2] = target: GlnBP(111C-192C) double-cysteine variant (E. coli) (UniProt P0AEQ3)
[3] = target: GlnBP(59C-130C) double-cysteine variant (E. coli) (UniProt P0AEQ3)

B1: wild-type glutamine-binding protein GlnBP (protein, UniProt P0AEQ3 23-248)
chain: ADKKLVVATDTAFVPFEFKQGDKYVGFDVDLWAAIAKELKLDYELKPMDFSGIIPALQTKNVDLALAGITITDERKKAIDFSDGYYKSGLLVMVKANNNDVKSVKDLDGKVVAVKSGTGSVDYAKANIKTKDLRQFPNIDNAYMELGTNRADAVLHDTPNILYFIKTAGNGQFKAVGDSLEAQQYGIAFPKGSDELRDKVNGALKTLRENGTYNEIYKKWFGTEPK
- binding [1]: no binding

B2: GlnBP(111C-192C) double-cysteine variant (protein, UniProt P0AEQ3 23-248)
chain: B1 chain with V111C, G192C
- binding [2]: no binding

B3: GlnBP(59C-130C) double-cysteine variant (protein, UniProt P0AEQ3 23-248)
chain: B1 chain with T59C, T130C
- binding [3]: no binding
